This assay relates to gastric cancer cell line Hs746T. In words: Cancer cell proliferation inhibitory test (SRB or MTS assay, 72 hours). As to conditions: read-out: Hs746T IC50; cancer cell (Hs746T) proliferation inhibition, culturing with compound for 72 hours. The format is cell-based, human.

Consider one compound from patent US9403831B2, “Triazolopyrazine derivative and use thereof” (KOREA RESEARCH INSTITUTE OF CHEMICAL TECHNOLOGY, priority 2013, dated 2016).

Not every entry of the source has a single result; some have several. This is not the full list of results. There may be further records. The values listed for one entry differ for a reason that is not stated; dose, time, organism, isomer or construct need not be as stated for each record.

What is called IC50 is the concentration at which inhibition is half-maximal. `CN1CC=C(c2cnc(N3CCO[C@H](Cn4nnc5ncc(-c6cccc(C#N)c6)nc54)C3)nc2)CC1` [Chemical formula 23]: the concentration for half-maximal inhibition (IC50) was ≤ 1 nM and 0.1 nM.
